Binding data for 1 substance are collected here from doi:10.1101/2023.01.02.522499.

The chains behind the UniProt entries cited, without tags or fusion partners.
UniProt Q16637: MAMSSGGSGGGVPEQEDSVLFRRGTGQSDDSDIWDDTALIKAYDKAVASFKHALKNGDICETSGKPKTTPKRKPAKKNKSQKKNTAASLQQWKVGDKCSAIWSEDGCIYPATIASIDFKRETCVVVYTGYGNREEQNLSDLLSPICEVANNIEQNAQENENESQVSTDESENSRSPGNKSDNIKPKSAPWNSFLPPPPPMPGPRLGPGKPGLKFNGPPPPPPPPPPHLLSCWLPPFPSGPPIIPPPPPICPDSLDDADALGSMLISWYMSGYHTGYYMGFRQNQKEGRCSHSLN
UniProt O14893: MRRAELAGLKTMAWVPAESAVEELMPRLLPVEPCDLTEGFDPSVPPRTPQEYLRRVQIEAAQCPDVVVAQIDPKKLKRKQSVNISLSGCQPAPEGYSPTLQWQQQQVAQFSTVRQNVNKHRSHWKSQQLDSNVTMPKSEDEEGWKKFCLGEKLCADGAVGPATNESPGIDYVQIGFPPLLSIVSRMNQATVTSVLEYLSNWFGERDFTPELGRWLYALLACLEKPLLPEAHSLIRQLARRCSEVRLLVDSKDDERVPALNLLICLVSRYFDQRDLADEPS

In the assay the target is untagged SMN protein (survival of motoneuron protein) (human (endogenous in hiPSC)) (UniProt Q16637). The assay is described as follows: co-IP.

These are yes or no findings as the source states them, for the method shown. In cells and extracts the contact can be indirect. Some binding calls cover weakened binding; strength is not graded here.

Take gemin2 (from UniProt O14893 1-280): the binding result was “binds”.
